Source: patent publication US11649238B2, “Substituted pyrazolo[1,5-a]pyrimidines as PI4K inhibitors” (GLAXOSMITHKLINE INTELLECTUAL PROPERTY DEVELOPMENT LIMITED, priority 2018, dated 2023)
Some results were stated once for a whole list of compounds, not compound by compound.

System: human rhinovirus Type A Strain 16 (HRVA16) in HeLa Ohio cells
Assay: Cytopathic Effect (CPE) Assay, ATP-depletion in infected HeLa Ohio cells
Format: cell-based
Settings: HRVA16 at MOI of 1, 33° C. for 2 days, CellTiter-Glo
Experimental: c) Cytopathic Effect (CPE) Assay Protocol
The in vitro inhibition of PI4 KB activity was determined by analysis of the inhibition of ATP-depletion in HeLa Ohio cells in response to infection with human rhinovirus Type A Strain 16 (HRVA16). ATP levels were determined using CellTiter-GLO reagent from Promega. Compounds that inhibit PI4 KB are also potent inhibitors of human rhinoviruses and are able to protect HeLa Ohio cells from CPE induced by viral infection and replication. Protected cells remain viable following viral infection and therefore have greater ATP levels.
Compounds were dissolved in 100% DMSO to a concentration of 3 mM and subsequent dilutions were prepared in 100% DMSO using a 1:3 serial step dilution. A 0.5 μL stamp from an 10-point titration was transferred to a white 96 well Greiner tissue culture flat bottom plate (655083). A 0.5 μL stamp of 100% DMSO was stamped into columns 11 and 12 of the plate, ensuring a final assay DMSO concentration of 0.33% across the plate and a compound top final assay concentration of 10 μM.
HeLa Ohio cells were cultured at 37° C., 5% CO2 in media (DMEM supplemented with 10% Australian origin foetal bovine serum and 2 mM glutamax). Cells were passaged when confluency reached >80%. For the assay, cells were grown to 80-90% confluency before detachment.
Cells were detached for the assay by washing with PBS and detached using 3 mL TrypLE Express for […] at 37° C. Detached cells were mixed with 7 mL of media and centrifuged at 300 g for 5 min. The cell pellet was resuspended in 50 mL media and counted on a Beckman Coulter ViCell. Cells were diluted to 6.6×10^4 cells/mL and some of the cell volume was removed into a new tube to be used as a column 12 control. HRVA16 stock was added to the remaining cell suspension at the appropriate dilution for the virus stock to achieve an MOI of 1.
150 μL of the cell+virus suspension was added per well to columns 1-11 using a Multidrop Combi. 150 μL of the separate cell suspension was added per well to columns 12 using a multichannel pipette. Assay plates were sealed and incubated at 33° C., 5% CO2 for 2 days. After 2 days, assay plates were removed from the incubator and allowed to equilibrate to room temperature. 60 μL of CellTiter-Glo reagent was added to all wells using a Thermo Scientific Multidrop Combi. Plates were incubated at room temperature for 20 min before reading on an a Perkin Elmer Envision (Settings: Gripper height 2.5, Fixed measurement height (mm) 6.5, Distance between plate and detector 0, Measurement time (s) 0.1, Glow (ct2) correction factor (0%)).
The inhibitory effect of the compounds on the PI4 KB activity was evaluated by the IC50 of the response relative to the high (no virus, column 12) and low (virus+no inhibitor, column 11) controls by fitting to a four parameter dose response equation.

CCC(O)c1cc(NCc2cccc(-c3nccn3C)c2)n2nc(C)c(-c3ccc(C)c(C(=O)N(C)CCCO)c3)c2n1 (single isomer, unassigned) [Compound 69, N-(3-Hydroxypropyl)-5-(5-(1-hydroxypropyl)-2-methyl-7-((3-(1-methyl-1H-imidazol-2-yl)benzyl)amino)pyrazolo[1,5-a]pyrimidin-3-yl)-N,2-dimethylbenzamide]
mean pIC50 (listed as compound 69): ≥ 7.6

CCC(O)c1cc(NCc2cccc(-c3nccn3C)c2)n2nc(C)c(-c3ccc(C)c(C(=O)N(C)CCCO)c3)c2n1 (single isomer, unassigned) [Compound 70, N-(3-Hydroxypropyl)-5-(5-(1-hydroxypropyl)-2-methyl-7-((3-(1-methyl-1H-imidazol-2-yl)benzyl)amino)pyrazolo[1,5-a]pyrimidin-3-yl)-N,2-dimethylbenzamide]
mean pIC50: greater than or equal to 8.4 | mean pIC50 (listed as compound 70): ≥ 7.6

Cc1nn2c(NCc3cccc(-c4nccn4C)c3)cc(C(C)O)nc2c1-c1ccc(Cl)c(C(=O)N(C)CCCO)c1 (single isomer, unassigned) [Compound 73, 2-Chloro-5-(5-(1-hydroxyethyl)-2-methyl-7-((3-(1-methyl-1H-imidazol-2-yl)benzyl)amino)pyrazolo[1,5-a]pyrimidin-3-yl)-N-(3-hydroxypropyl)-N-methylbenzamide]
mean pIC50 (listed as compound 73): ≥ 7.6

Cc1nn2c(NCc3cccc(-c4nccn4C)c3)cc(C(C)O)nc2c1-c1ccc(Cl)c(C(=O)N(C)CCCO)c1 (single isomer, unassigned) [Compound 74, 2-Chloro-5-(5-(1-hydroxyethyl)-2-methyl-7-((3-(1-methyl-1H-imidazol-2-yl)benzyl)amino)pyrazolo[1,5-a]pyrimidin-3-yl)-N-(3-hydroxypropyl)-N-methylbenzamide]
mean pIC50 (listed as compound 74): ≥ 7.6

CCC(O)c1cc(NCc2cccc(-c3nccn3C)c2)n2nc(C)c(-c3ccc(OC)c(S(=O)(=O)CCO)c3)c2n1 (single isomer, unassigned) [Compound 75, 1-(3-(3-((2-Hydroxyethyl)sulfonyl)-4-methoxyphenyl)-2-methyl-7-((3-(1-methyl-1H-imidazol-2-yl)benzyl)amino)pyrazolo[1,5-a]pyrimidin-5-yl)propan-1-ol]
mean pIC50 (listed as compound 75): ≥ 7.6

CCC(O)c1cc(NCc2cccc(-c3nccn3C)c2)n2nc(C)c(-c3ccc(OC)c(S(=O)(=O)CCO)c3)c2n1 (single isomer, unassigned) [Compound 76, 1-(3-(3-((2-Hydroxyethyl)sulfonyl)-4-methoxyphenyl)-2-methyl-7-((3-(1-methyl-1H-imidazol-2-yl)benzyl)amino)pyrazolo[1,5-a]pyrimidin-5-yl)propan-1-ol]
mean pIC50: greater than or equal to 8.4 | mean pIC50 (listed as compound 76): ≥ 7.6

COc1ccc(-c2c(C)nn3c(NCc4cccc(-c5nccn5C)c4)cc(C(C)(C)O)nc23)cc1C(=O)N(C)CC(C)O (single isomer, unassigned) [Compound 83, 5-(5-(2-Hydroxypropan-2-yl)-2-methyl-7-((3-(1-methyl-1H-imidazol-2-yl)benzyl)amino)pyrazolo[1,5-a]pyrimidin-3-yl)-N-(2-hydroxypropyl)-2-methoxy-N-methylbenzamide]
mean pIC50 (listed as compound 83): ≥ 7.6

COc1ccc(-c2c(C)nn3c(NCc4cccc(-c5nccn5C)c4)cc(C(C)(C)O)nc23)cc1C(=O)N(C)CC(C)O (single isomer, unassigned) [Compound 84, 5-(5-(2-Hydroxypropan-2-yl)-2-methyl-7-((3-(1-methyl-1H-imidazol-2-yl)benzyl)amino)pyrazolo[1,5-a]pyrimidin-3-yl)-N-(2-hydroxypropyl)-2-methoxy-N-methylbenzamide]
mean pIC50: greater than or equal to 8.4 | mean pIC50 (listed as compound 84): ≥ 7.6

COc1ccc(-c2c(C)nn3c(NCc4cccc(-c5nccn5C)c4)cc(C(C)O)nc23)cc1S(C)(=O)=O (centres unmarked) [Compound 1, 1-(3-(4-Methoxy-3-(methylsulfonyl)phenyl)-2-methyl-7-((3-(1-methyl-1H-imidazol-2-yl)benzyl)amino)pyrazolo[1,5-a]pyrimidin-5-yl)ethanol]
mean pIC50: greater than or equal to 8.4 | mean pIC50 (listed as compound 1): ≥ 7.6

CCC(O)c1cc(NCc2cccc(-c3nccn3C)c2)n2nc(C)c(-c3ccc(OC)c(S(=O)(=O)CCO)c3)c2n1 (centres unmarked) [Compound 3]
mean pIC50: greater than or equal to 8.4 | mean pIC50 (listed as compound 3): ≥ 7.6

COc1ccc(-c2c(C)nn3c(NCc4cccc(-c5nccn5C)c4)cc(C(O)C(C)C)nc23)cc1S(=O)(=O)CCO (centres unmarked) [Compound 5]
mean pIC50: greater than or equal to 8.4 | mean pIC50 (listed as compound 5): ≥ 7.6

COc1ccc(-c2c(C)nn3c(NCc4cccc(-c5nccn5C)c4)cc(C(C)(C)O)nc23)cc1S(=O)(=O)CCO [Compound 6, 2-(3-(3-((2-Hydroxyethyl)sulfonyl)-4-methoxyphenyl)-2-methyl-7-((3-(1-methyl-1H-imidazol-2-yl)benzyl)amino)pyrazolo[1,5-a]pyrimidin-5-yl)propan-2-ol]
mean pIC50: greater than or equal to 8.4 | mean pIC50 (listed as compound 6): ≥ 7.6

Cc1nn2c(NCc3cccc(-c4nccn4C)c3)cc(C(C)(C)O)nc2c1-c1ccc(Cl)c(C(=O)N(C)CCCO)c1 [Compound 7, 2-Chloro-5-(5-(2-hydroxypropan-2-yl)-2-methyl-7-((3-(1-methyl-1H-imidazol-2-yl)benzyl)amino)pyrazolo[1,5-a]pyrimidin-3-yl)-N-(3-hydroxypropyl)-N-methylbenzamide]
mean pIC50: greater than or equal to 8.4 | mean pIC50 (listed as compound 7): ≥ 7.6

Cc1nn2c(NCc3cccc(-c4nccn4C)c3)cc(C(C)O)nc2c1-c1ccc(Cl)c(C(=O)N2CC[C@H](O)C2)c1 (some centres unmarked) [Compound 14]
mean pIC50: greater than or equal to 8.4 | mean pIC50 (listed as compound 14): ≥ 7.6

CCN(CCO)C(=O)c1cc(-c2c(C)nn3c(NCc4cccc(-c5nccn5C)c4)cc(C(C)O)nc23)ccc1Cl (centres unmarked) [Compound 15, 2-chloro-N-ethyl-N-(2-hydroxyethyl)-5-(5-(1-hydroxyethyl)-2-methyl-7-((3-(1-methyl-1H-imidazol-2-yl)benzyl)amino)pyrazolo[1,5-a]pyrimidin-3-yl)benzamide]
mean pIC50: greater than or equal to 8.4 | mean pIC50 (listed as compound 15): ≥ 7.6

Cc1ccc(-c2c(C)nn3c(NCc4cccc(-c5nccn5C)c4)cc(C(C)(C)O)nc23)cc1C(=O)N1CC[C@H](O)C1 [Compound 29, (S)-(5-(5-(2-hydroxypropan-2-yl)-2-methyl-7-((3-(1-methyl-1H-imidazol-2-yl)benzyl)amino)pyrazolo[1,5-a]pyrimidin-3-yl)-2-methylphenyl)(3-hydroxypyrrolidin-1-yl)methanone]
mean pIC50: greater than or equal to 8.4 | mean pIC50 (listed as compound 29): ≥ 7.6

Cc1ccc(-c2c(C)nn3c(NCc4cccc(-c5nccn5C)c4)cc(C(C)(C)O)nc23)cc1C(=O)N1CCC(C)(O)C1 (centres unmarked) [Compound 31]
mean pIC50: greater than or equal to 8.4 | mean pIC50 (listed as compound 31): ≥ 7.6
